Test results taken from patent US20250195483A1, “SPIRO PIPERIDINE DERIVATIVES AS INHIBITORS OF APOL1 AND METHODS OF USING SAME” (Vertex Pharmaceuticals Incorporated, priority 2022, published 2025).

The chains behind the UniProt entries cited, without tags or fusion partners.
UniProt O14791, whole entry: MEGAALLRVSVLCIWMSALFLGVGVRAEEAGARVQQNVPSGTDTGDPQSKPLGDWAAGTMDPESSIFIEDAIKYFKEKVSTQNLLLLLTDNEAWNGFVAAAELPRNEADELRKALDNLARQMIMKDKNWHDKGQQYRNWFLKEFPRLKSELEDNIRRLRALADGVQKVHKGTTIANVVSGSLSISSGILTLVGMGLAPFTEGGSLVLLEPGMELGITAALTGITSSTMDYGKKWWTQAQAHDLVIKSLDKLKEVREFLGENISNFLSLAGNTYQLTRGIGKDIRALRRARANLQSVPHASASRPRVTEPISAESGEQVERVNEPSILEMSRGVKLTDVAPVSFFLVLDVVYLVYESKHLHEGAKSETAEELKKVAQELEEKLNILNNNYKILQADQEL

Target: APOL1 (Homo sapiens, UniProt O14791)
Assay: MultiTox-Fluor Multiplex Cytotoxicity Assay, tet-inducible APOL1 T-REx-HEK293 cells (G0, G1 or G2 clone not specified for Table 20)
Procedure: Human embryonic kidney (HEK293) cell lines containing a tet-inducible expression system (T-REx™; Invitrogen, Carlsbad, CA) and Adeno-associated virus site 1 pAAVS1-Puro-APOL1 G0 or pAAVS1-Puro-APOL1 G1 or pAAVS1-Puro-APOL1 G2 Clones G0 DC2.13, G1 DC3.25, and G2 DC4.44 were grown in a T-225 flask at ˜90% confluency in cell growth media (DMEM, 10% Tet-free FBS, 2 mM L-glutamine, 100 Units/mL penicillin-streptomycin, 5 μg/mL blasticidin S HCl, 1 μg/mL puromycin dihydrochloride). Cells were washed with DPBS and then trypsinized to dissociate from the flask. Media was used to quench the trypsin, cells were then pelleted at 200 g and resuspended in fresh cell assay media (DMEM, 2% Tet-free FBS, 2 mM L-glutamine, 100 Units/mL penicillin-streptomycin). Cells were counted and diluted to 1.17×10^6 cells/mL. 20 μL of cells (23,400/well) were dispensed in every well of a 384-well Poly-D-Lysine coated plate using the Multidrop dispenser. The plates were then incubated at room temperature for one hour.
Tetracycline is needed to induce APOL1 expression. 1 mg/mL tet stock in water was diluted to 250 ng/mL (5×) in cell assay media. 60 μL of cell assay media (no tet control) was dispensed in columns 1 and 24, and 60 μL of 5× tet in 384-PP-round bottom plate was dispensed in columns 2 to 23 with the Multidrop dispenser.
Assay ready plates from the Global Compound Archive were ordered using template 384_APOL1Cell_DR10n2_50 uM_v3. Compounds were dispensed at 200 nL in DMSO. The final top concentration was 10 μM with a 10 point 3-fold dilution in duplicate in the MultiTox assay.
20 μL was transferred from the 5× tet plate to the ARP and mixed, then 5 μL of 5× tet and the compounds were transferred to the cell plate and mixed using the Bravo. The cell plate was placed in the humidified 37° C. […]
The MultiTox-Fluor Multiplex Cytotoxicity Assay was performed in accordance with the manufacturer's protocol. […] The cell viability (excitation: 400 nm, emission: 486 nm) and cytotoxicity (excitation: 485 nm, emission: 535 nm) were read using the EnVision plate reader. […] Data was exported and analyzed in Genedata. […]

[1] = read-out: IP50 (i.e., IC50 for cell proliferation), tet-induced, 24 hours with compound, ratio of dead to live cells

| SMILES | pIC50 (read-out: IP50 (i.e., IC50 for cell proliferation), tet-induced, 24 hours with compound, ratio of dead to live cells, tested form: TFA) | pIC50 [1] |
| --- | --- | --- |
| CC1CC2(CCN1Cc1cnn(CCS(C)(=O)=O)c1)C(=O)Nc1ccc(Cl)cc12 (stereo not drawn) | > 7.30 | – |
| Cc1cc(F)c2c(c1)C1(CCN(Cc3cnn(CCS(C)(=O)=O)c3)CC1)C(=O)N2C [82] | – | < 6.30 |
| Cc1cccc2c1CCOC21CCN(Cc2cnn(C)c2)CC1 | – | < 6.30 |

pIC50: −log10 of the molar value. Like-named read-outs stand apart in the source and are kept apart here. The structures given here were assigned with low confidence; some may be wrong.
